The supplement of paper PMC10849652
The list shows a part of the results.

Protein sequences, listed by entry. Tags and fused reporters are not part of them. Lines headed by an entry give the natural chain unless they say otherwise; changes in a name come on top.
UniProt Q96K49: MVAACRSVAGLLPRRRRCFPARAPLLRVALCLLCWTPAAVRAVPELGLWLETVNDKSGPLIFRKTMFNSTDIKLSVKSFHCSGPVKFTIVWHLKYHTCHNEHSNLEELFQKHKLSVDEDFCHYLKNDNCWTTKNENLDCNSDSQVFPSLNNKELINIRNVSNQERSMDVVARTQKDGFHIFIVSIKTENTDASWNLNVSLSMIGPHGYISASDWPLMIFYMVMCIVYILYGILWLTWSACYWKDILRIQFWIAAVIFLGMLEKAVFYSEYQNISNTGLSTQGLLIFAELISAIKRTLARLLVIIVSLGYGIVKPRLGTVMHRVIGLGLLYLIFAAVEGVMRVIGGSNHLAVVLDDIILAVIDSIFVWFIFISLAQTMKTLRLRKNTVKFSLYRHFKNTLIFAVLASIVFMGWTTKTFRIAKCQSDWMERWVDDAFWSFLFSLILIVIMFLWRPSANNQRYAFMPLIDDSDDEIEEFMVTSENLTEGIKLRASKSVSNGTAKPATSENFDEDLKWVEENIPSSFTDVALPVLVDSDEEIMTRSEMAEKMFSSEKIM
UniProt Q96HV5: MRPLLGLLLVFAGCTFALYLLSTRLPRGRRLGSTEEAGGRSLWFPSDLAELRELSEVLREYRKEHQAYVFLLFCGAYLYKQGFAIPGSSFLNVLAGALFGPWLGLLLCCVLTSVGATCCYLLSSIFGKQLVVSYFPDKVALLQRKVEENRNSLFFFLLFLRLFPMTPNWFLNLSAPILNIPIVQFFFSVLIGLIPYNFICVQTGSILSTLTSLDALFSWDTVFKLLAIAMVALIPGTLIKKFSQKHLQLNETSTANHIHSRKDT
UniProt Q969X1: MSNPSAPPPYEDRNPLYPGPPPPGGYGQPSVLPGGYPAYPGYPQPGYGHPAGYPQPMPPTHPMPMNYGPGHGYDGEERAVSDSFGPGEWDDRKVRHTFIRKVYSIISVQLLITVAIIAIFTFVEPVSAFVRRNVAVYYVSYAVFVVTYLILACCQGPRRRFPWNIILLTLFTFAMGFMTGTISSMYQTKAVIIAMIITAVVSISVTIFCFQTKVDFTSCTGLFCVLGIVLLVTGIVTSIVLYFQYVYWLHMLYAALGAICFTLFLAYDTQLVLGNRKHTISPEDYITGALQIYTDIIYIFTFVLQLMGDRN
UniProt Q9Y3A6: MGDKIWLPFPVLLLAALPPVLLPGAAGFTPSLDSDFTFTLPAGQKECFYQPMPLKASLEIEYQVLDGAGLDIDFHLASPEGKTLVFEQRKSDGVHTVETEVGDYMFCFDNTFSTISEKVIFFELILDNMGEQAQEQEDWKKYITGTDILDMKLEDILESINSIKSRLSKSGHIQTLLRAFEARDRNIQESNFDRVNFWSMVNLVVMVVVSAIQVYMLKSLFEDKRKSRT
UniProt Q9NQ34: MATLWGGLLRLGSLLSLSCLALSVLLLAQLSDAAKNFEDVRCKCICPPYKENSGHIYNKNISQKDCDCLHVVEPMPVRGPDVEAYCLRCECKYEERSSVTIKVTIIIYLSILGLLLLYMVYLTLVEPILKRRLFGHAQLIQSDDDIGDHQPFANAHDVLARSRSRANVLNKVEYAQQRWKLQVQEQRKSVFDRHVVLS
UniProt Q99805: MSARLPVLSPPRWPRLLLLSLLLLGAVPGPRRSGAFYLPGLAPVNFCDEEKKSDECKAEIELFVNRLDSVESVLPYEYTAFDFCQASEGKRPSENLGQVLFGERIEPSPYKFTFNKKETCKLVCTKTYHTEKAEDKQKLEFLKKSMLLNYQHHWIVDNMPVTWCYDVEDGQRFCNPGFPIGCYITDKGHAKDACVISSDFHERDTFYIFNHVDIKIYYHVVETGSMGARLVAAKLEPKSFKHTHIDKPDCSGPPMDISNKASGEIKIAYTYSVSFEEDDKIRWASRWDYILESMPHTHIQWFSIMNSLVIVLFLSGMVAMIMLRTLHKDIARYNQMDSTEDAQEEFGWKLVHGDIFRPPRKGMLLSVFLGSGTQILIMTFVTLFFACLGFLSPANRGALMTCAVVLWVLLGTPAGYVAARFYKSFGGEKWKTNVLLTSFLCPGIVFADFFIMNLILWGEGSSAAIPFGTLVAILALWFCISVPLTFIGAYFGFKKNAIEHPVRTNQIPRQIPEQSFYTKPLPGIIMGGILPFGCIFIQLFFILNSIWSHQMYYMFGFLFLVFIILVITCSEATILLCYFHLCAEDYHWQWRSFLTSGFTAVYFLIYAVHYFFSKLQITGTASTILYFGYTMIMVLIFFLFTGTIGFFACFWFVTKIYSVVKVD
UniProt Q5U3C3: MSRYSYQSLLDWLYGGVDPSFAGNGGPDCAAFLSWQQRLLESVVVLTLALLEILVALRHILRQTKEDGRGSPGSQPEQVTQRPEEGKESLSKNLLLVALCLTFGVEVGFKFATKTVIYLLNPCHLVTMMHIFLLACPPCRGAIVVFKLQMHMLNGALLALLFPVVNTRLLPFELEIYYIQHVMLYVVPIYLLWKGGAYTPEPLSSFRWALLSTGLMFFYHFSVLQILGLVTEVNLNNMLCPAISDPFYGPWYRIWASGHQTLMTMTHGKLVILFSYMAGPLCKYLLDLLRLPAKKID
UniProt Q86UE8, whole entry, looked up: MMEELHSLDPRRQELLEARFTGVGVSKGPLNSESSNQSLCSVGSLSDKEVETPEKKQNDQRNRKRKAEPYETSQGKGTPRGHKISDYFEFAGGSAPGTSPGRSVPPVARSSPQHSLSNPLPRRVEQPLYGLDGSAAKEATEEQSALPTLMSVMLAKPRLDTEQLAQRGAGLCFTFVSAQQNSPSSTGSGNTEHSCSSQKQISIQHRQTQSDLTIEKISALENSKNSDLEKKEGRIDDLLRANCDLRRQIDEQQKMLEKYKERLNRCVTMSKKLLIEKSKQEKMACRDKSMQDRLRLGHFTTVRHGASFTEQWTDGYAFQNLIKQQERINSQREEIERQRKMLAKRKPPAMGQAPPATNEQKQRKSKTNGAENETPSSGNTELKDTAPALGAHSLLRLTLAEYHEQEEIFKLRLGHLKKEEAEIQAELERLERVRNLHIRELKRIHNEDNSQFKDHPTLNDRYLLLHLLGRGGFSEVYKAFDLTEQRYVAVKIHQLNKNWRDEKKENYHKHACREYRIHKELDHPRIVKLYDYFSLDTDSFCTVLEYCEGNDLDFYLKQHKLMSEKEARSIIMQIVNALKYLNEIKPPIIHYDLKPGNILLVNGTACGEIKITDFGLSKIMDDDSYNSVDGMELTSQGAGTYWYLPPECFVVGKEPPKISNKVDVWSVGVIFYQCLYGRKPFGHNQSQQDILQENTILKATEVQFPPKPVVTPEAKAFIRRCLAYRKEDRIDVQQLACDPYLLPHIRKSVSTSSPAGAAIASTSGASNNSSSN
UniProt Q5BJF2, whole entry, looked up: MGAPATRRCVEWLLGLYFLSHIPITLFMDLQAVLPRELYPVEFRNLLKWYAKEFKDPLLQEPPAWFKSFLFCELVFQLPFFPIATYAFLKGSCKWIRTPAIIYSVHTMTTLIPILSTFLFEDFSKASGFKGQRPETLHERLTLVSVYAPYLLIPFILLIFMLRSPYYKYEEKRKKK
UniProt Q9BUB7: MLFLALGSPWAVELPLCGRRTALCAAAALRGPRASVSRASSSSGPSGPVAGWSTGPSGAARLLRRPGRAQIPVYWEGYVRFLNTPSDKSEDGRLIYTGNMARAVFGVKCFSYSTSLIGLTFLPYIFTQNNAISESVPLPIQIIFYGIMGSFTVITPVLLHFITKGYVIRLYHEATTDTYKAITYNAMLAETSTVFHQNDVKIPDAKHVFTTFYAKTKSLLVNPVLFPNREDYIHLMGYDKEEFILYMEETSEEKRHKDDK
UniProt Q9BTX3: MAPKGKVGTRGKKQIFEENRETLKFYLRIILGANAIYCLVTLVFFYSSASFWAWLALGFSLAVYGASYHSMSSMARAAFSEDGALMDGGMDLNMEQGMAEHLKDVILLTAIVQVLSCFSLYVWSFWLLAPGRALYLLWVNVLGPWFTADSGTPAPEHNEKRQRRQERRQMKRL
UniProt Q9P0T7: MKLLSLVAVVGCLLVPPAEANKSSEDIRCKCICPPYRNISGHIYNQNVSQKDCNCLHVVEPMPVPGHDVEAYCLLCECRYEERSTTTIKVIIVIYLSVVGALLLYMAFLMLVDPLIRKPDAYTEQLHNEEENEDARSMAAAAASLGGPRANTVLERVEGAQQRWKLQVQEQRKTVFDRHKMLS
UniProt Q9H1E5: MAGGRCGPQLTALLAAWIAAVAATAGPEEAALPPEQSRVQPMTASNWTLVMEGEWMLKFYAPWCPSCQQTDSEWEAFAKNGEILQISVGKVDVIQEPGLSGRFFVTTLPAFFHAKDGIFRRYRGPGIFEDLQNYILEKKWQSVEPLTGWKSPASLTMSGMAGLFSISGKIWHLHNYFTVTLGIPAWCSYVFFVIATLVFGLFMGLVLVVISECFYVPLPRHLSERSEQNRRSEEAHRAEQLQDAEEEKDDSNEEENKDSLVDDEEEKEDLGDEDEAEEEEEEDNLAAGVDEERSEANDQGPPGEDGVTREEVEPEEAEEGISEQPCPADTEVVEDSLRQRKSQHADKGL
UniProt Q86WV6: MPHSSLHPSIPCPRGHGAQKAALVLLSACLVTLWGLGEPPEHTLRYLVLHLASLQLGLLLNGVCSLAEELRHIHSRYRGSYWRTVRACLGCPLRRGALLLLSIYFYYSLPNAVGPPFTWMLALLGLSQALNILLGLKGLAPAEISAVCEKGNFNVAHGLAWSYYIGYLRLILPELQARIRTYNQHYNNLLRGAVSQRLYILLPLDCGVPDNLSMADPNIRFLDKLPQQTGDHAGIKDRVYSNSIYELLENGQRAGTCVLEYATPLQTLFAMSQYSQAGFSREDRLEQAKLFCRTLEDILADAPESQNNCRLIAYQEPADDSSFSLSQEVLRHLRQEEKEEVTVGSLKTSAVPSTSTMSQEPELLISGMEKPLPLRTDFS
UniProt O95379: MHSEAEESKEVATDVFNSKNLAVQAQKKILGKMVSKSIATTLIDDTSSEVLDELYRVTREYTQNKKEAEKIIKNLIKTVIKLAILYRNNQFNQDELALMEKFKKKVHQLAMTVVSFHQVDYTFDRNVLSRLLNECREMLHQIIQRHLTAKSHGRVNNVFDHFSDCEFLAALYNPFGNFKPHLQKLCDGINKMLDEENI
UniProt A0PJW6: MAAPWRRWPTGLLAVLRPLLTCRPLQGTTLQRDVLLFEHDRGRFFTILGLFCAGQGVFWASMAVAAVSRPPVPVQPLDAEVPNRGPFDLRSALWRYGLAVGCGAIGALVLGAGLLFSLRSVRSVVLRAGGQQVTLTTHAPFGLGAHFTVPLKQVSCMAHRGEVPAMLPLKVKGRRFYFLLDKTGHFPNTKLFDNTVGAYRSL
UniProt Q9NVA4: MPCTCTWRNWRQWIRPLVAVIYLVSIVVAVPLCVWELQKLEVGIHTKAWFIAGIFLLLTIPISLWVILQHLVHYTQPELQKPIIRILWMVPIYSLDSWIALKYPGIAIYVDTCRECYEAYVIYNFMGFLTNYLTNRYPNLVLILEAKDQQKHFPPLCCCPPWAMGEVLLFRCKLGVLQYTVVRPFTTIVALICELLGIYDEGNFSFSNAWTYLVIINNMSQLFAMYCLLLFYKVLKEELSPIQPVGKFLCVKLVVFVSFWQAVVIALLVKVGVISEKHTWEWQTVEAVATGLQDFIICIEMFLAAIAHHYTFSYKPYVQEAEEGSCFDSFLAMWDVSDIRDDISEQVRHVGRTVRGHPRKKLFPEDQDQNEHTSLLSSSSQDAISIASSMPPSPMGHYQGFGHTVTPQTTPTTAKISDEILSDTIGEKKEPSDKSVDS
UniProt Q5T3F8: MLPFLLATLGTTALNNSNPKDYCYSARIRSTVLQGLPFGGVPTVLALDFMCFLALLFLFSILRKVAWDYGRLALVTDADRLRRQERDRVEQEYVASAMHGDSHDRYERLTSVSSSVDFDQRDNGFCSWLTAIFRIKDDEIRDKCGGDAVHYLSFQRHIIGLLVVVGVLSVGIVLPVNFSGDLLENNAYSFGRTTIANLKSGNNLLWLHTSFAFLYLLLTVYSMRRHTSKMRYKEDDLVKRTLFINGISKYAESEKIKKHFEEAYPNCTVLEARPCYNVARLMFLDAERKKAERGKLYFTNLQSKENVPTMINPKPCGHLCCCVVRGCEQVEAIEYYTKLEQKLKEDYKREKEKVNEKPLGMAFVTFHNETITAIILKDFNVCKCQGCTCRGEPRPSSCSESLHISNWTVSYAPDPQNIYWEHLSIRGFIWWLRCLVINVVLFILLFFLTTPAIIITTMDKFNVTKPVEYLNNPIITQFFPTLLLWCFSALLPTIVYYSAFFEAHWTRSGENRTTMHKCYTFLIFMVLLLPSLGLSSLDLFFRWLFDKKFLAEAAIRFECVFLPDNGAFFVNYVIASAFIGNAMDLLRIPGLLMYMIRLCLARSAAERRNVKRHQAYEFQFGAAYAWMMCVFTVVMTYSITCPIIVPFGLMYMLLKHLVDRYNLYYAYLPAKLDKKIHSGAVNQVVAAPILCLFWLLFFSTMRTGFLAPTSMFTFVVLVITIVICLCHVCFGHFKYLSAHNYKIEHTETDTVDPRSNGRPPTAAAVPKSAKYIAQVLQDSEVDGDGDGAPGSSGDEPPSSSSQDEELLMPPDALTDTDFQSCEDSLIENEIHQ

Tests used:
Test in all cases: log2 fold change, soluble protein after heating vs DMSO (PISA); higher = thermal stabilisation; K562 cells, 10 uM, 30 min; active = over 0.2 and 3.5 SD of the protein, either way, in both replicates (recomputed)
[1] = compound: NC(=O)Nc1cc(-c2cccc(F)c2)sc1C(=O)N[C@H]1CCCNC1
In short: (§1)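 K562 cells at 2×10^6 cells/mL were exposed to 10 μM compound for 30 min, then aliquots were heated for 3 min across 48°C-58°C, pooled, and extracted in PBS containing 0.5% NP-40 at 4°C. The supernatant after 21,000xg for 90 min was taken as soluble protein and measured by TMTpro 16plex LC-MS/MS with channel sums equalised. Thermal stability is reported relative to control samples, with values from duplicates. Fold changes are given on a log2 scale.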

[2] = compound: NC(=O)c1cnc(N[C@@H]2CCCC[C@@H]2N)nc1Nc1cccc(-n2nccn2)c1
In short: as §1

[3] = compound: NC1(c2ccc(-c3nc4ccn5c(=O)[nH]nc5c4cc3-c3ccccc3)cc2)CCC1
In short: as §1

[4] = compound: NCC(=O)Nc1ccc(-n2nc(C(F)(F)F)cc2-c2ccc3c(ccc4ccccc43)c2)cc1
In short: as §1

entinostat = compound: Nc1ccccc1NC(=O)c1ccc(CNC(=O)OCc2cccnc2)cc1 [entinostat]
In short: as §1

vorinostat = compound: O=C(CCCCCCC(=O)Nc1ccccc1)NO [vorinostat]
In short: as §1

citarinostat = compound: O=C(CCCCCCNC(=O)c1cnc(N(c2ccccc2)c2ccccc2Cl)nc1)NO [citarinostat]
In short: as §1

silmitasertib = compound: O=C(O)c1ccc2c(c1)nc(Nc1cccc(Cl)c1)c1ccncc12 [silmitasertib]
In short: as §1

[5] = compound: O=C1NC(=O)C(c2cnc3ccccn23)=C1c1cn2c3c(cc(F)cc13)CN(C(=O)N1CCCCC1)CC2
In short: as §1

[6] = compound: c1cc(OCCN2CCCCC2)cc(-c2n[nH]c3ccc(-c4nnc[nH]4)cc23)c1
In short: as §1

entospletinib = compound: c1cn2cc(-c3ccc4cn[nH]c4c3)nc(Nc3ccc(N4CCOCC4)cc3)c2n1 [entospletinib]
In short: as §1

Measured: log2 fold change

TMEM87B (UniProt Q96K49)
inactive: [1] -0.098 | [2] -0.062 | [3] -0.266 | [4] -0.1 | entinostat 0.135 | vorinostat 0.057 | citarinostat 0.021 | silmitasertib 0.096 | [5] -0.032 | [6] -0.117

TMEM65 (UniProt Q6PI78)
inactive: [1] -0.016 | [2] 0.043 | [3] 0.006 | [4] 0.009 | entinostat -0.119 | vorinostat -0.032 | citarinostat -0.056 | silmitasertib 0.066 | [5] -0.134 | [6] -0.075 | entospletinib 0.109

TMEM41A (UniProt Q96HV5)
inactive: [1] -0.005 | [2] -0.053 | [3] 0.002 | [4] -0.066 | entinostat -0.027 | vorinostat 0.09 | citarinostat 0.04 | silmitasertib -0.015 | [5] -0.018 | [6] -0.059

TMBIM1 (UniProt Q969X1)
inactive: [1] 0.079 | [2] -0.229 | [3] -0.008 | [4] -0.259 | entinostat 0.062 | vorinostat -0.034 | citarinostat -0.208 | silmitasertib 0.067 | [5] -0.149 | [6] 0.021

TMEM263 (UniProt Q8WUH6)
inactive: [1] -0.044 | [2] -0.335 | [3] -0.389 | [4] -0.299 | entinostat 0.123 | vorinostat 0.058 | citarinostat 0.068 | silmitasertib 0.057 | [5] -0.08 | [6] -0.037

TMED5 (UniProt Q9Y3A6)
inactive: [1] -0.016 | [2] -0.088 | [3] -0.094 | [4] -0.033 | entinostat -0.031 | vorinostat 0.125 | citarinostat -0.007 | silmitasertib -0.004 | [5] 0.062 | [6] -0.085 | entospletinib -0.027

TMEM9B (UniProt Q9NQ34)
inactive: [1] -0.025 | [2] 0.004 | [3] -0.093 | [4] -0.111 | entinostat 0.025 | vorinostat 0.051 | citarinostat 0.023 | silmitasertib 0.038 | [5] 0.043 | [6] -0.121

TM9SF2 (UniProt Q99805)
inactive: [1] 0.026 | [2] 0.006 | [3] -0.138 | [4] -0.022 | entinostat -0.006 | vorinostat 0.006 | citarinostat -0.003 | silmitasertib 0.002 | [5] -0.057 | [6] -0.062

TMEM164 (UniProt Q5U3C3)
inactive: [1] 0.129 | [2] -0.138 | [3] -0.006 | [4] -0.248 | entinostat -0.112 | vorinostat 0.139 | citarinostat 0.087 | silmitasertib 0.01 | [5] -0.004 | [6] -0.268

TMEM161B (UniProt Q8NDZ6)
inactive: [1] -0.056 | [2] 0.029 | [3] -0.017 | [4] -0.073 | entinostat 0.041 | vorinostat 0.097 | citarinostat 0.036 | silmitasertib -0.011 | [5] 0.003 | [6] -0.03

TMEM109 (UniProt Q9BVC6)
inactive: [1] 0.006 | [2] -0.094 | [3] -0.001 | [4] -0.041 | entinostat 0.016 | vorinostat -0.069 | citarinostat -0.047 | silmitasertib -0.002 | [5] -0.039 | [6] 0.037 | entospletinib -0.002

Two entries drawn at random from those above:
TM9SF2 (UniProt Q99805)
inactive: [1] 0.026 | [2] 0.006 | [3] -0.138 | [4] -0.022 | entinostat -0.006 | vorinostat 0.006 | citarinostat -0.003 | silmitasertib 0.002 | [5] -0.057 | [6] -0.062

TMEM263 (UniProt Q8WUH6)
inactive: [1] -0.044 | [2] -0.335 | [3] -0.389 | [4] -0.299 | entinostat 0.123 | vorinostat 0.058 | citarinostat 0.068 | silmitasertib 0.057 | [5] -0.08 | [6] -0.037

Following part.

TLK2 isoform 2 (UniProt Q86UE8)
inactive: [1] -0.059 | [2] 0.049 | [3] -0.042 | [4] -0.037 | entinostat 0.036 | vorinostat 0.1 | citarinostat 0.016 | silmitasertib 0.034 | [5] -0.026 | [6] -0.052

TMEM161A (UniProt Q9NX61)
inactive: [1] 0.043 | [2] 0.012 | [3] -0.132 | [4] -0.101 | entinostat 0.049 | vorinostat 0.006 | citarinostat 0.083 | silmitasertib -0.023 | [5] -0.009 | [6] -0.098

TMEM97 (UniProt Q5BJF2)
inactive: [1] -0.058 | [2] -0.02 | [3] -0.017 | [4] 0.001 | entinostat -0.008 | vorinostat -0.068 | citarinostat -0.054 | silmitasertib 0.032 | [5] 0.003 | [6] 0.026 | entospletinib -0.016

TMEM70 (UniProt Q9BUB7)
inactive: [1] -0.058 | [2] -0.125 | [3] -0.162 | [4] -0.137 | entinostat 0.005 | vorinostat 0.031 | citarinostat 0.047 | silmitasertib 0.019 | [5] -0.045 | [6] -0.003

TMEM208 (UniProt Q9BTX3)
inactive: [1] 0.038 | [2] -0.133 | [3] -0.28 | [4] -0.181 | entinostat -0.01 | vorinostat 0.187 | citarinostat 0.036 | silmitasertib 0.048 | [5] 0.02 | [6] -0.09

TMEM120A (UniProt Q9BXJ8)
active: entospletinib -0.404
inactive: [1] 0.229 | [2] 0.089 | [3] 0.058 | [4] 0.091 | entinostat 0.002 | vorinostat 0.1 | citarinostat 0.252 | silmitasertib -0.124 | [5] 0.185 | [6] 0.082

TMEM177 (UniProt Q53S58)
active: [4] 0.347
inactive: [1] -0.014 | [2] -0.008 | [3] -0.043 | entinostat -0.021 | vorinostat -0.048 | citarinostat 0.068 | silmitasertib -0.019 | [5] 0.048 | [6] -0.042

TMEM9 (UniProt Q9P0T7)
inactive: [1] -0.008 | [2] 0.047 | [3] -0.113 | [4] 0.063 | entinostat -0.026 | vorinostat -0.053 | citarinostat 0.1 | silmitasertib -0.044 | [5] -0.031 | [6] 0.065

TMX4 (UniProt Q9H1E5)
inactive: [1] -0.055 | [2] 0.077 | [3] -0.043 | [4] 0.004 | entinostat -0.042 | vorinostat -0.08 | citarinostat -0.027 | silmitasertib 0.034 | [5] 0.015 | [6] -0.058 | entospletinib -0.003

TMEM62 (UniProt Q0P6H9)
inactive: [1] -0.033 | [2] -0.163 | [3] -0.104 | [4] -0.062 | entinostat -0.142 | vorinostat 0.008 | citarinostat 0.042 | silmitasertib -0.029 | [5] -0.009 | [6] -0.053 | entospletinib -0.051

TMEM173 (UniProt Q86WV6)
inactive: [1] 0.002 | [2] -0.041 | [3] -0.078 | [4] -0.06 | entinostat 0.032 | vorinostat -0.09 | citarinostat -0.028 | silmitasertib -0.041 | [5] 0.035 | [6] 0.006

TNFAIP8 isoform 4 (UniProt O95379)
inactive: [1] -0.032 | [2] -0.091 | [3] -0.061 | [4] 0.029 | entinostat 0.018 | citarinostat 0.012 | silmitasertib 0.147 | [5] -0.073 | [6] 0.087
active: vorinostat 0.207

TMEM223 (UniProt A0PJW6)
inactive: [1] -0.087 | [2] -0.14 | [3] -0.1 | [4] 0.071 | entinostat -0.02 | vorinostat 0.096 | citarinostat -0.031 | silmitasertib 0.019 | [5] 0.05 | [6] -0.036

TMEM184C (UniProt Q9NVA4)
inactive: [1] -0.185 | [2] 0.069 | [4] -0.07 | entinostat -0.218 | vorinostat 0.08 | citarinostat -0.065 | silmitasertib -0.004 | [5] -0.055 | [6] 0.022
active: [3] -0.401

TMEM63B (UniProt Q5T3F8)
inactive: [1] 0.069 | [2] 0.059 | [3] -0.153 | [4] 0.052 | entinostat 0.07 | vorinostat -0.008 | citarinostat -0.024 | silmitasertib 0.001 | [5] -0.037 | [6] -0.021
